Where a name gives a salt, the structure may show the parent alone. Hit rate of the full screen: of about 5,300 compounds, about 130 (2.5%) showed an effect of 50% or more. This is one part of the list. Peptide text beside a SMILES is read from it.
test system: M. mycetomatis strain mm55; details: primary screen, metabolic activity vs growth control; 96 h, 2 µM; inhibitor

Structure (SMILES)	% viability [%]
OC[C@H]1O[C@@H](c2ccc(F)c(Cc3cc4ccccc4s3)c2)[C@H](O)[C@@H](O)[C@@H]1O [ONC0001793, ipragliflozin]	91.04
CC1CCc2c(N3CCC(O)CC3)c(F)cc3c(=O)c(C(=O)O)cn1c23 (stereo not shown) [ONC0004121, nadifloxacin]	106.7
CCCc1c(OCCCCc2nnn[nH]2)ccc(C(C)=O)c1O [ONC0003437, ly 171883]	65.16
O=[N+]([O-])c1nccn1CC(O)CN1CCCCC1 (stereo not shown) [ONC0003868, pimonidazole]	83.71
NCC(=O)O [ONC0001985, glycine]	104.5
Cc1ccc(-c2ncc(Cl)cc2-c2ccc(S(C)(=O)=O)cc2)cn1 [ONC0000788, etoricoxib]	72.83
C[N+](C)(C)CCCCCNCC12CC3CC(CC(C3)C1)C2 [ONC0003367, iem1460]	82.77
O=C(O)CCCCCCCCCCCCCCc1ccc(I)cc1 [ONC0005552, omega4iodophenylpentadecanoic acid]	101.6
CCCC(=O)N1CCCN(c2nc(N)c3cc(OC)c(OC)cc3n2)CC1 [ONC0002101, bunazosin hydrochloride]	74.17
O=C1Cc2cc(CCN3CCN(c4nsc5ccccc45)CC3)c(Cl)cc2N1 [ONC0004893, ziprasidone hydrochloride]	115.4
CC(C)/N=c1\cc2n(-c3ccc(Cl)cc3)c3ccccc3nc-2cc1Nc1ccc(Cl)cc1 [ONC0004010, clofazimine]	59.81
N[C@@H]1CON=C1O [ONC0000314, cycloserine d]	88.4
OC[C@H]1O[C@@H]2O[C@H]3[C@H](O)[C@@H](O)[C@@H](O[C@H]4[C@H](O)[C@@H](O)[C@@H](O[C@H]5[C@H](O)[C@@H](O)[C@@H](O[C@H]6[C@H](O)[C@@H](O)[C@@H](O[C@H]7[C@H](O)[C@@H](O)[C@@H](O[C@H]8[C@H](O)[C@@H](O)[C@@H](O[C@H]1[C@H](O)[C@H]2O)O[C@@H]8CO)O[C@@H]7CO)O[C@@H]6CO)O[C@@H]5CO)O[C@@H]4CO)O[C@@H]3CO [ONC0004137, betacyclodextrin]	76.26
O=C1[C@@H](Cc2ccc(O)cc2)N2C(=O)CCN(C(=O)NCc3ccccc3)[C@H]2CN1Cc1cccc2ccccc12 [ONC0004352, icg001]	93.48
CC(=O)N(O)CCCCCNC(=O)CCC(=O)N(O)CCCCCNC(=O)CCC(=O)N(O)CCCCCN [ONC0005619, deferoxaminemesylate]	86.71
C[C@H]1O[C@@H](O[C@H]2[C@@H](O)C[C@H](O[C@H]3[C@@H](O)C[C@H](O[C@H]4CC[C@]5(C)C6C[C@@H](O)[C@]7(C)[C@@H](C8=CC(=O)OC8)CC[C@]7(O)C6CC[C@@H]5C4)O[C@@H]3C)O[C@@H]2C)C[C@H](O)[C@@H]1O (stereo partly shown) [ONC0000453, digoxin]	79.25
N[C@H](CO)C(=O)O [ONC0001995, dserine]	67.69
CCn1c(-c2nonc2N)nc2cncc(CNC3CCNCC3)c21 [ONC0000096, sb747651a]	75.74
COc1ccc2nc3ccc(Cl)cc3c(SCCCN)c2c1 [ONC0004421, ldn209929]	119.6
CN1CC(=O)NC1=N [ONC0002791, creatinine]	105.8

Structure (SMILES)	% viability [%]
O=C(Cc1ccc(-c2ccc(OCCN3CCOCC3)cc2)cn1)NCc1ccccc1 [ONC0005091, kx2391]	85.19
CC(C)(C(=O)c1cccnc1)c1cccnc1 [ONC0005447, metyrapone]	124.1
COC(=O)Nc1ccc(-c2nc(N3CCOCC3)c3cnn(C4CCN(Cc5cccnc5)CC4)c3n2)cc1 [ONC0001643, wye687]	107.7
Nc1ncn([C@H]2C[C@H](O)[C@@H](CO)O2)c(=O)n1 [ONC0003115, decitabine]	79.17
CC(C)(CC(=O)N1CCCC1)NCC(=O)N1C[C@@H](F)C[C@H]1C#N [ONC0001034, dbpr108]	85.05
O=c1cc(-c2ccc(O)c(O)c2)oc2cc(O)cc(O)c12 [ONC0005074, luteolin]	90.55
CCC(CC)O[C@@H]1C=C(C(=O)O)C[C@H](N)[C@H]1NC(C)=O [ONC0001288, oseltamivir acid]	79.28
CCOc1cc(C(=O)N2CCC(N3CCN(C)CC3)CC2)ccc1Nc1ncc2c(n1)N(C1CCCC1)c1ccccc1C(=O)N2C [ONC0001309, xmd17109]	139.2
O=C(NOCCO)c1ccc2cncn2c1Nc1ccc(I)cc1F [ONC0005172, gdc0623]	115.8
CC(=O)Nc1ccc(NC(=S)NC(=O)c2ccc(C(C)(C)C)cc2)cc1 [ONC0005205, tenovin1]	158.2
C[C@H](NC(=O)[C@@H](O)c1cc(F)cc(F)c1)C(=O)N[C@@H]1C(=O)N(C)c2ccccc2-c2ccccc21 [ONC0005268, ly411575]	105.9
CCCC(=O)O [ONC0004805, sodium butyrate]	67.66
CN1CCN(C2=Cc3ccccc3Oc3ccc(Cl)cc32)CC1 [ONC0004301, 2cmdo]	90.35
C[C@]12CC[C@@H]3c4ccc(O)cc4CC[C@H]3[C@@H]1CC[C@@H]2OC(=O)CCC1CCCC1 [ONC0000738, estradiol cypionate]	84.11
CC(O)CC(=O)O (stereo not shown) [ONC0003511, betahydroxybutyrate]	60.8
CC(C)N(CCCNC(=O)Nc1ccc(C(C)(C)C)cc1)C[C@H]1O[C@@H](n2ccc3c(N)ncnc32)[C@H](O)[C@@H]1O [ONC0004328, epz004777]	126.4
CN1CCc2cccc3c2[C@H]1Cc1ccc(O)c(O)c1-3 [ONC0005471, apomorphine hydrochloride]	91.2
C[C@H](NC(=O)Cc1cc(F)cc(F)c1)C(=O)N[C@H](C(=O)OC(C)(C)C)c1ccccc1 [ONC0003591, dapt]	109.9
O=C(O)C=C(CC(=O)O)C(=O)O [ONC0003760, cisaconiticacid]	93.51
NCC(=O)N[C@@H](CCC(N)=O)C(=O)O [ONC0003608, s5amino22aminoacetamido5oxopentanoic acid] (H-Gly-Gln-OH)	104.9

Structure (SMILES)	% viability [%]
CCC(NC(C)C)C(O)c1ccc(O)c(O)c1 (stereo not shown) [ONC0004032, isoetharine mesylate]	90.3
C/C(=N\NC(=O)C(NC(=O)c1ccccc1)c1n[nH]c(=O)c2ccccc12)c1cccc(Br)c1 (stereo not shown) [ONC0001013, ac55541]	89.73
CCC(Cc1c(I)cc(I)c(N)c1I)C(=O)O (stereo not shown) [ONC0002312, iopanic acid]	101.4
Cc1cc(Nc2ccc(NC(=O)c3ccc(Nc4ccnc5ccccc45)cc3)cc2)nc(N)n1 [ONC0005027, sgi1027]	80.8
COC(=O)c1cc2c(C(F)(F)F)cc(-c3ccccc3)cc2n1O [ONC0003580, nhi2]	99.99
CN1C2=CC(=O)/C(=N\NC(N)=O)C=C2CC1S(=O)(=O)O (stereo not shown) [ONC0004540, carbazochrome sodium sulfonate]	67.82
COc1ccc(OC)c(C(O)C(C)N)c1 (stereo not shown) [ONC0000444, methoxamine hydrochloride]	88.05
O=c1cc(N2CCOCC2)oc2c1ccc1ccccc12 [ONC0002057, nu 7026]	73.75
C[C@@H]1[C@H](O)[C@@H](C)/C=C/C=C/C=C/C=C/C=C/C=C/C=C/[C@H](O[C@@H]2O[C@H](C)[C@@H](O)[C@H](N)[C@@H]2O)C[C@@H]2O[C@](O)(C[C@@H](O)C[C@@H](O)[C@H](O)CC[C@@H](O)C[C@@H](O)CC(=O)O[C@H]1C)C[C@H](O)[C@H]2C(=O)O [amphotericin B]	95.43
CCOc1cncc(/C=C/CCNC)c1 [ONC0001241, tc2559 fumarate]	114.6
COc1ccc2[nH]c(I)c(CCNC(C)=O)c2c1 [ONC0000040, 2iodomelatonin]	94.63
CCOC(=O)c1cc2ccc(O)cc2oc1=O [ONC0000162, yz9]	106.5
CO[C@@]1(NC(=O)CSCC#N)C(=O)N2C(C(=O)O)=C(CSc3nnnn3C)CS[C@@H]21 [ONC0000659, cefmetazole sodium]	84.29
CCC[C@@H]1C[C@@H](C(=O)N[C@@H]([C@H]2O[C@H](SC)[C@H](O)[C@@H](O)[C@@H]2O)[C@@H](C)O)N(C)C1 [ONC0000511, lincomycin hydrochloride]	95.69
O=C(O)CCCCN(CCc1ccccc1OCc1ccc(CCc2ccccc2)cc1)Cc1ccc(C(=O)O)cc1 [ONC0000830, cinaciguat]	70.66
CC(=O)OCC1=C(C(=O)O)N2C(=O)[C@@H](N)[C@H]2SC1 [ONC0004514, 7aminocephalosporanic acid]	52.68
CCCN(CCC)C(=O)C(CCC(=O)O)NC(=O)c1ccccc1 (stereo not shown) [ONC0000651, proglumide sodium]	101.2
C/C=C1\NC(=O)[C@H]2CSSCC/C=C/[C@H](CC(=O)N[C@H](C(C)C)C(=O)N2)OC(=O)[C@H](C(C)C)NC1=O [ONC0000722, romidepsin]	49.6

3 neighbouring compounds out of the list so far, quoted:
Structure (SMILES)	% viability [%]
C[C@]12CC[C@@H]3c4ccc(O)cc4CC[C@H]3[C@@H]1CC[C@@H]2OC(=O)CCC1CCCC1 [ONC0000738, estradiol cypionate]	84.11
CC(O)CC(=O)O (stereo not shown) [ONC0003511, betahydroxybutyrate]	60.8
CC(C)N(CCCNC(=O)Nc1ccc(C(C)(C)C)cc1)C[C@H]1O[C@@H](n2ccc3c(N)ncnc32)[C@H](O)[C@@H]1O [ONC0004328, epz004777]	126.4

— article PMC12670160, “A drug-repurposing screen of FDA- and EMA-approved drugs identifies two NF-κB inhibitors active against eumycetoma” (Journal of Antimicrobial Chemotherapy, 2025)
